The results in this text go back to article PMC7819943, “Rice protein-binding microarrays: a tool to detect cis-acting elements near promoter regions in rice”.

Amino acid sequences for entries named in this document (tags omitted).
UniProt Q0JBA9, entry or part of it: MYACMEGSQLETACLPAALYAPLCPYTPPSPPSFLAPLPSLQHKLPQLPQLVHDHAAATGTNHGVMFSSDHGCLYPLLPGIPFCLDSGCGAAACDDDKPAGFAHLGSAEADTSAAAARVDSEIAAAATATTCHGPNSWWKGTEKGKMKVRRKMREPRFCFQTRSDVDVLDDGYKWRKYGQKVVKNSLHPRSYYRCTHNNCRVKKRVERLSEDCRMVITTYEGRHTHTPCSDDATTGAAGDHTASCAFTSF

The list shows a part of the results.

This test deals with OsWRKY34 (Oryza sativa, UniProt Q0JBA9 1-250). Kind of test: protein-binding microarray (RPBM); PBS, 2% BSA, 51.3 ng/ul salmon testes DNA, 50 uM zinc acetate, 200 nM TF, 25 C, 1 h; high values mean tight binding. Particulars: protein: recombinant; tags: N-terminal polyhistidine and DsRed monomer fusion (pET32a); label: CyDye5-dUTP incorporated in the synthesized complementary strand; 3' TTTTT single-stranded linker to array surface; dsDNA, one strand shown. The method in brief:
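Transcription factors, each fused N-terminally to a polyhistidine tag and DsRed, were expressed in E. coli BL21-CodonPlus and purified on Ni–NTA. A custom Agilent array was made double-stranded by primer extension with Cy5-dUTP and blocked with 2% BSA. It was incubated with 200 nM protein in PBS, 2% BSA, salmon testes DNA and 50 µM zinc acetate at 25 °C for 1 h, then washed. The binding signal is per-feature fluorescence intensity (arbitrary units) read on an Axon 4000B scanner.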
Consider “TTTCCCTGCAATTGGATTCTTCACAGGTGGAAGACTTACCCGGAGTCACCTAGTGCAG”, for which the binding signal was 8610 fluorescence intensity (a.u.). Turning to “TATAATAGGTTTTGTTTCACTTAGATTTCACAGATTTTGTCGGAGTCACCTAGTGCAG”, the binding signal is 8120 fluorescence intensity (a.u.). For the sequence “ACCCTTCTCGTCTCGTGTATACAATGTATGTACCTATTAACGGAGTCACCTAGTGCAG”, the binding signal was 9850 fluorescence intensity (a.u.). As for “TCGGTCCCTCCGCTTCGCTGTTGTGGGACGTGGGTCGGGGCGGAGTCACCTAGTGCAG”, the figure is 11500 fluorescence intensity (a.u.); as for “ACTTAATCCATTTTCTTTTCTTCTCCTATTTTTCCATCAACGGAGTCACCTAGTGCAG”, 9970 fluorescence intensity (a.u.); as for “TACGGGAGCGTCCTCTTCCTCTTCTTCGCTCTCCACTCCGCGGAGTCACCTAGTGCAG”, 10300 fluorescence intensity (a.u.). The result for “CGACCAAACAACCGCCTTTTTTTTTAGTCTCCACTCTCTCCGGAGTCACCTAGTGCAG” reads 8970 fluorescence intensity (a.u.); that for “ATACCACTAGCTCGCCTCTCGTCTCCGCGTCACTGAAATTCGGAGTCACCTAGTGCAG”, 11500 fluorescence intensity (a.u.); that for “ATCTAGCATCTCCGTTTTTTGTAAGGTTGGTTCATGCCTCCGGAGTCACCTAGTGCAG”, 10400 fluorescence intensity (a.u.).

As for “TTTTAATAACACCATTGACTTTTCATATAACATTGGTCCACGGAGTCACCTAGTGCAG”, the binding signal was 9200 fluorescence intensity (a.u.).

For the sequence “TCTTCGCACCCTAAGATTTCCACGTCGTCGATGCCTTTTCCGGAGTCACCTAGTGCAG”, the binding signal is 8510 fluorescence intensity (a.u.). The result for “GCCTCCGCCTCTCATATTTTTCCCATTTTTCACCTGCCTTCGGAGTCACCTAGTGCAG” reads 10800 fluorescence intensity (a.u.); that for “ATCTATCTATTGTACCCTTCTTAAACCGGAAGCAACATATCGGAGTCACCTAGTGCAG”, 8150 fluorescence intensity (a.u.).

As for “ACACGGCCACAGTTTCTTCATAGATTTGTTGTTACTACTCCGGAGTCACCTAGTGCAG”, the binding signal is 9340 fluorescence intensity (a.u.). As for “ATATTCCCCTGTGGTTCTACTCTCCCATCCCGTCCGGTTCCGGAGTCACCTAGTGCAG”, the figure is 8720 fluorescence intensity (a.u.). In the case of “CCGGAACTCCGTCATGTCGGCCTTCTTCGCGAACTTCTTCCGGAGTCACCTAGTGCAG”, the binding signal is 8170 fluorescence intensity (a.u.).

As to “GGATCTGTCCGTTCTACCACCTCTAAACAGCGGTTACCGACGGAGTCACCTAGTGCAG”, the binding signal is 8260 fluorescence intensity (a.u.). As for “GTAGCTGGGTCAAATTTGTACTTGTATGAGCAAGGTTGCTCGGAGTCACCTAGTGCAG”, the figure is 8130 fluorescence intensity (a.u.); as for “AGTCTAACACGGTTTCCGATATGCAACTTTGACCAACAATCGGAGTCACCTAGTGCAG”, 8250 fluorescence intensity (a.u.). Take “CATTTCTCTGGACTTCTCTCTCCCTTTCTTCCTTTCTCTGCGGAGTCACCTAGTGCAG”: the binding signal is 9260 fluorescence intensity (a.u.). The result for “GTTTTATGGTTATAGTAGTTTCGCGTGTTTCATAAAATAACGGAGTCACCTAGTGCAG” reads 8220 fluorescence intensity (a.u.); that for “TCCCATCGATGATCCTTCGTTGATTCGCGTCAACCTCTCGCGGAGTCACCTAGTGCAG”, 8690 fluorescence intensity (a.u.). As for “CCAATACGATATCGACTCGACCCTTGTTCGGCCCAGTACGCGGAGTCACCTAGTGCAG”, the binding signal is 8030 fluorescence intensity (a.u.).

For the sequence “CTCCGTTTTGTTTTTTTTTTCGTTTTCTTTTTTCTTCCTCCGGAGTCACCTAGTGCAG”, the binding signal is 12200 fluorescence intensity (a.u.).

As to “TCGTTGTGTCGGCTCCACCCGTTTGGGTGGATCCCTTCCGCGGAGTCACCTAGTGCAG”, the binding signal is 8060 fluorescence intensity (a.u.). As for “TCCCAAAGGAGCCCTCACAAAAATTCGGCCATTTTCGCTTCGGAGTCACCTAGTGCAG”, the figure is 8220 fluorescence intensity (a.u.); as for “TGTGCCTTAATCCACATGCTTAACCTTAATTAATTGATTACGGAGTCACCTAGTGCAG”, 9350 fluorescence intensity (a.u.).

On to “TGTTGACTTTTGGATACATGTTTGACAATTCGTCTTATTTCGGAGTCACCTAGTGCAG”, for which the binding signal was 14700 fluorescence intensity (a.u.). For “GCGATGTGTGTTGACTTAAGTCACCGTCCTCCGTAACGATCGGAGTCACCTAGTGCAG”, the binding signal is 10400 fluorescence intensity (a.u.). As for “TTGCGGATTGGTGGAAGGAGTTGGTTTATTTTGGGACAAACGGAGTCACCTAGTGCAG”, the figure is 8220 fluorescence intensity (a.u.); as for “GGTGGCGAGAGGAGGGGATGGCGGAGGGCGGCGAAGGGACCGGAGTCACCTAGTGCAG”, 11300 fluorescence intensity (a.u.).

On to “TCTTGGTTACATGGTGGTTGGTGTTTCATTCTCTTGTTTTCGGAGTCACCTAGTGCAG”, for which the binding signal is 10000 fluorescence intensity (a.u.). As for “ATTTTGTGCTTCAACTTGTTATCATACAATTTTCCAATTACGGAGTCACCTAGTGCAG”, the figure is 8260 fluorescence intensity (a.u.); as for “CGCCGCGTCCCACCCGCTCCACGCCGCGTACGCGCTCTTCCGGAGTCACCTAGTGCAG”, 8640 fluorescence intensity (a.u.).

With “GTCTTCTGCATGAAGGGTGGGCAAGGGGAGTCCAGTTACCCGGAGTCACCTAGTGCAG”, the binding signal was 9570 fluorescence intensity (a.u.). The result for “AATTGATGATGTGGAGTCGTTTTTCATCGTTTCCGTGAAACGGAGTCACCTAGTGCAG” reads 8120 fluorescence intensity (a.u.); that for “TCCTCACCTGGATTCTGTTCCAAATTTGATCAACCACACTCGGAGTCACCTAGTGCAG”, 11000 fluorescence intensity (a.u.). The result for “TCCATGGTTCACACTTCACACCTGGGCTGCCTGTTCATCACGGAGTCACCTAGTGCAG” reads 9320 fluorescence intensity (a.u.); that for “AACTTTCAACTTTTCTATCACATCAAAACTTTCATACACACGGAGTCACCTAGTGCAG”, 8450 fluorescence intensity (a.u.). As for “CCTCCACCATATCACACAGCAGCTCACTTGTCTCGCTTCCCGGAGTCACCTAGTGCAG”, the figure is 11100 fluorescence intensity (a.u.); as for “ATAAACTTTCAGCTTTCGATCTGATCCATCGGTTCCTTAGCGGAGTCACCTAGTGCAG”, 9750 fluorescence intensity (a.u.); as for “GGGGAGGAGGAGGAGGAGGGTAGGGATGGGGAAGAGGAGTCGGAGTCACCTAGTGCAG”, 8020 fluorescence intensity (a.u.).
